Results on one molecule are retold here after article PMC6970084.

The chains behind the UniProt entries cited, without tags or fusion partners.
UniProt P78362: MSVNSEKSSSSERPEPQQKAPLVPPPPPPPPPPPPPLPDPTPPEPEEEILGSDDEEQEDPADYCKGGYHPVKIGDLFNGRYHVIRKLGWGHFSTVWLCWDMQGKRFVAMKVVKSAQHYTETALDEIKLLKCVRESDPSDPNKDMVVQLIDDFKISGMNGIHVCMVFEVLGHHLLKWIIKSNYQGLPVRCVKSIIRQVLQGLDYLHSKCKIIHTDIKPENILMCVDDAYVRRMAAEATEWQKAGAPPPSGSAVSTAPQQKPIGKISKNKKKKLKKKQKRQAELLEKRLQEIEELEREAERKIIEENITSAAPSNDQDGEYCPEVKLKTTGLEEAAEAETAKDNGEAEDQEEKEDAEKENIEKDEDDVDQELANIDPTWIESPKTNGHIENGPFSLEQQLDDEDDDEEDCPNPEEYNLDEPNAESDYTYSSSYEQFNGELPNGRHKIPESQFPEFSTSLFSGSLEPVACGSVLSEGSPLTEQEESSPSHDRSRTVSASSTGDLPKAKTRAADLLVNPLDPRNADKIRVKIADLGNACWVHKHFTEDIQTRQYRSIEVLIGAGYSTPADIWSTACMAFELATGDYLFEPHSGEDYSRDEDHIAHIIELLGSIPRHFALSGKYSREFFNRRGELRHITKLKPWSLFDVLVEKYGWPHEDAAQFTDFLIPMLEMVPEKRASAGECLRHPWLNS

Results are given in words; binding and its absence hold for the method and conditions named. Binding seen in cells or lysates may run through a third protein. Some binding calls cover weakened binding; strength is not graded here.

This experiment concerns the target Serine-arginine protein kinase 2 (human (endogenous in HCT116)) (UniProt P78362). Description: co-IP; endogenous proteins of HCT116 cells, without or with 5-fluorouracil at its IC50; precipitated with SRPK2, Numb or p53 antibody, control IgG as negative control; blotted; procedure as in ref. 15.

B1: Numb (protein, UniProt P49757 1-651)
chain: MNKLRQSFRRKKDVYVPEASRPHQWQTDEEGVRTGKCSFPVKYLGHVEVDESRGMHICEDAVKRLKAERKFFKGFFGKTGKKAVKAVLWVSADGLRVVDEKTKDLIVDQTIEKVSFCAPDRNFDRAFSYICRDGTTRRWICHCFMAVKDTGERLSHAVGCAFAACLERKQKREKECGVTATFDASRTTFTREGSFRVTTATEQAEREEIMKQMQDAKKAETDKIVVGSSVAPGNTAPSPSSPTSPTSDATTSLEMNNPHAIPRRHAPIEQLARQGSFRGFPALSQKMSPFKRQLSLRINELPSTMQRKTDFPIKNAVPEVEGEAESISSLCSQITNAFSTPEDPFSSAPMTKPVTVVAPQSPTFQANGTDSAFHVLAKPAHTALAPVAMPVRETNPWAHAPDAANKEIAATCSGTEWGQSSGAASPGLFQAGHRRTPSEADRWLEEVSKSVRAQQPQASAAPLQPVLQPPPPTAISQPASPFQGNAFLTSQPVPVGVVPALQPAFVPAQSYPVANGMPYPAPNVPVVGITPSQMVANVFGTAGHPQAAHPHQSPSLVRQQTFPHYEASSATTSPFFKPPAQHLNGSAAFNGVDDGRLASADRHTEVPTGTCPVDPFEAQWAALENKSKQRTNPSPTNPFSSDLQKTFEIEL
Take B1: the binding result was “binds”.
